# Primary screen of a compound library

Protein sequences, listed by entry. Tags and fused reporters are not part of them.
UniProt E9BF75, entry or part of it: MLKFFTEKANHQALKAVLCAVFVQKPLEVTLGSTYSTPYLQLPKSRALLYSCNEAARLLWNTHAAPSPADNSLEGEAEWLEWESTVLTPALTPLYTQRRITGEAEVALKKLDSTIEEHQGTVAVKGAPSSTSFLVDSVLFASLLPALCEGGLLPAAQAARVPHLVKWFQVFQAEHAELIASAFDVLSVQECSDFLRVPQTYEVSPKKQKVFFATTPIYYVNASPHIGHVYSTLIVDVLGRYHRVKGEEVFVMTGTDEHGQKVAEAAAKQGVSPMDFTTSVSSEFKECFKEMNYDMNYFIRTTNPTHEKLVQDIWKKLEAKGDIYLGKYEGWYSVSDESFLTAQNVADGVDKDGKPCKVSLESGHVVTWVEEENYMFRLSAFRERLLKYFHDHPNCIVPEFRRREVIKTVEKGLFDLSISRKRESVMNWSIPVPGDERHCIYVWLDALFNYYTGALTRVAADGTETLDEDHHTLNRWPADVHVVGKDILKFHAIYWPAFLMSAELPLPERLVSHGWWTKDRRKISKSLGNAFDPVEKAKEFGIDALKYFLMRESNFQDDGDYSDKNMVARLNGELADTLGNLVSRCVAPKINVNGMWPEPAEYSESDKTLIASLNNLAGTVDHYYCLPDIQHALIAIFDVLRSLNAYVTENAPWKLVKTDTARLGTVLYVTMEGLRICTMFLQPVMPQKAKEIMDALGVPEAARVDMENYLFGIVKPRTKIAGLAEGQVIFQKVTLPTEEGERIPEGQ

From ChEMBL document CHEMBL3988442, “University of Dundee, Small-Polar-MMV Screening Library” (2021).

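Methionyl-tRNA synthetase (putative), Leishmania donovani (UniProt E9BF75). Primary screen of methionyl-tRNA synthetase; the read-out is not stated. The test concentration is not given. Values are per cent inhibition. Of about 68,000 compounds tested this way, about 24 (0.035%) reached 50% or more in at least one test.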

Results are percentages, as filed.
The record does not define 0% and 100%; most values in the screen are far below 50% and negative numbers occur (in some assays of this library far below -100).
Compounds were drawn at random from those tested, without regard to their results.

* O=C(NCc1ccncc1)N(Cc1ccc(F)cc1F)C1CC1 | 11.71%
* CNc1snc(C)c1C(=O)NC(C)CC(=O)c1cccs1 (stereo unspecified) | 5.105%
* COc1cc(N2CCc3ncnc(-c4ccncc4)c3CC2)ncn1 | -3.258%
* CCN(CC)CCn1cc(NC(=O)c2ccccc2OC)cn1 | 8.871%
* Oc1ccc(Cl)cc1CNCc1ccccc1Cl | 11.75%
* CC(=O)NCc1nc(CC(C)C)nn1-c1cccc(C)c1 | 7.639%
* Cc1ccccc1CN(Cc1ccc(S(C)(=O)=O)cc1)CC(C)C | 9.536%
* c1cc(CNc2nnc(Cc3ccsc3)o2)cs1 | 20.07%
* Cc1[nH]ncc1C(=O)N1CCCC(c2ccn[nH]2)C1 (stereo unspecified) | 15.08%
* Cc1cc(C(=O)N2CCOC(c3nc(C(C)C)n[nH]3)C2)c(C)s1 (stereo unspecified) | 18.86%
* Cc1ccc(NC2CCN(C(=O)c3cccc4ncccc34)CC2)nn1 | 21.68%
* O=C(CC1CCC1)N1CCCC(CO)(CC2CC2)C1 (stereo unspecified) | 12.69%
* N#CC1(c2ccccc2)CCN(C(=O)C2CCCN(CC(N)=O)C2)CC1 (stereo unspecified) | 18.35%
* Cc1ccoc1C(=O)N1CCCc2c(c(=O)n(C)n2C)C1 | -2.128%
* CC(C)c1ccc(NC(=O)c2ncc(C(N)=O)cc2Cl)cc1 | 8.383%
* Cn1cc(C(=O)NCc2ccc(OC3CCCCC3)nc2)ccc1=O | 15.92%
* CCS(=O)(=O)N1CCO[C@H]2[C@H](OCC3CCCC3)CC[C@@H]21 | 15.48%
* O=C(c1cscn1)N1CC[C@H]2C[C@@H](c3ccncn3)O[C@@H]2C1 | 7.19%
* CCc1cc(C(=O)N2CC[C@@H](c3ccc4c(c3)OCO4)[C@H](O)C2)[nH]n1 | 6.25%
* CCOc1cc(C)nc(N2CCN(C(=O)Cn3cc(C)cn3)CC2)n1 | 24.58%
* Cc1ncsc1CNC(=O)CCN1CCN(c2ccccn2)CC1 | 14.51%
* Cc1nn(-c2ncnc3[nH]cnc23)c2c1C(C(C)C)CC(=O)N2 (stereo unspecified) | 16.25%
* Cc1cc2nc(SCC(=O)N3CCCC3)n(Cc3ccco3)c(O)c-2n1 | 15.58%
* COc1ncccc1NC(=O)C1CC(=O)N(Cc2ccccn2)C1 (stereo unspecified) | 15.49%
* CCN1CC(C(=O)N2CC(Oc3ccccc3F)C2)CC1=O (stereo unspecified) | 18.44%
* O=C1c2cccnc2OC(CN2CCOCC2)CN1Cc1cccs1 (stereo unspecified) | 7.297%
* CNC(=O)[C@H]1C[C@@H]2CN(C(=O)c3ccccn3)C[C@@H]2N1S(C)(=O)=O | -2.466%
* CCn1c(C)nnc1CN(C)C1CCN(CCOc2ccccc2)C1 (stereo unspecified) | 8.287%
* c1ccc(-c2ncc(CN3CCC4(CCNCC4)C3)cn2)cc1 | 5.426%
* COc1ccccc1CNC(=O)c1ccccc1-n1cnc(CN)c1 | 9.04%
* COc1ccc(CN(C)[C@@H]2CN(S(=O)(=O)C(C)C)C[C@H]2O)cc1 | 11.84%
* CCO[C@@H]1CC[C@H]2[C@H]1OCCN2C(=O)c1nn(C)c2ccccc12 | 5.464%
* CC(C)Cn1c2c(ccc1=O)CC(N)CC2 (stereo unspecified) | 12.22%
* CCCOC(=O)c1ccc(-c2ccc(/C=C3\C(=O)NC(=N)N3C)o2)cc1 | 9.329%
* CS(=O)(=O)N1CCCCCC1C1CCN(c2ncccn2)CC1 (stereo unspecified) | 11.22%
* O=C1COc2cc(C(=O)NS(=O)(=O)c3ccc(F)cc3F)ccc2N1 | 8.571%

The last 3 entries again:

Compound	inhibition
CCCOC(=O)c1ccc(-c2ccc(/C=C3\C(=O)NC(=N)N3C)o2)cc1	9.329%
CS(=O)(=O)N1CCCCCC1C1CCN(c2ncccn2)CC1 (stereo unspecified)	11.22%
O=C1COc2cc(C(=O)NS(=O)(=O)c3ccc(F)cc3F)ccc2N1	8.571%